Among all 52,000 sequences or so, about 210 (0.4%) were called active.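 The calls were made as follows: active = gene whose silencing raises cell survival under the drug, median off-target-corrected z-score across its silencing RNAs 2 or more; inactive = the rest.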 The list shows a part of the results.

A short description of the experiment: Resistance to Poly (ADP-Ribose) Polymerase inhibitor: Gene Identification via Genome-wide siRNA Screen. Particulars: mouse BRCA2 R2336H ES cells, olaparib, CellTiter-Glo viability; hits give high values. The method, boiled down: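 Mouse BRCA2 R2336H ES cells were reverse-transfected with siRNA (20 nM final), treated at 48 h with 500 nM olaparib, and read by CellTiter-Glo after 72 h. Scores: MAD-based z per siRNA, median per gene, seed off-target correction.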
(Cellular ATP, detected with luciferase, serves as a proxy for viable cell number.)
Regarding CCUUUCAAGGAAAUGAUCCTT against Lgr7, the z-score is inactive: 0.143. As for GGCAGAAGGCCAGUGGAUUTT against Cecr6, the figure is inactive: 0.376; as for “GGAUGUUACUUAAUGACUATT against 6720480D16Rik”, inactive: -0.676; as for GGCGAGAUCCUUCAAGCCUTT against Wdr6, inactive: 0.556. Consider CCUAACUGGGAUCGUAUUATT against Ixl, for which the z-score was inactive: 0.819. The figure for “GCAAAGGAUUUGACUUCUATT against 4921511C04Rik” is inactive: -0.66; for GCCAUCACGAGCUAAAACCTT against Smad5 it is inactive: 0.428; for CCCACCACAGUAAAGGAACTT against Rwdd3 it is inactive: 0.0172.

With GUGUCUGCUACCAUCGAAATT against BC008155, the z-score was inactive: 1.88. As for GCUAUCUAGAGCCAAGAGCTT against BC060615, the figure is inactive: 0.296; as for GGAGAAGAAUUAAAUGGAGTT against Pem, inactive: 0.6; as for GGUACGGUAUGGAGAUCGGTT against Atpaf2, inactive: 0.0979. As for GGAUCACAGAAGGUCCCUATT against Nox4, the z-score is inactive: -0.969. With GGGACACACCAUCAAAAGGTT against BC060737, the z-score is inactive: 1.26. As for GGAAAAGAUCAGAGAAUACTT against Hnrpab, the figure is inactive: 1.89; as for CCUAGGCACAGCUUUGUAUTT against Apof, inactive: -1.06; as for GGCAAUUCAAACAAUGCAGTT against Orm1, inactive: 0.362.

Take CCAAAAUUCGAACAAGUGATT against Mat2b: the z-score was inactive: -0.549.

Turning to GGUUCCUUACGAUGUGUCATT against Nsg1, the z-score was inactive: -0.398. The figure for CCUGGUGCCUUUAUCUACCTT against Ctxn is inactive: -0.988; for “GGAGAAAUUCCCUUGCCACTT against 4933428M03Rik” it is inactive: 0.443.

As for “GGUGUCUGGAGGGAGAUUUTT against 6030441F14Rik”, the z-score was inactive: -1. As for GGACCCAAGAAGUUUUAUUTT against BC050789, the figure is inactive: 1.61; as for GGCCAAGGAUCCAUCUGUATT against Magee1, inactive: -0.0847; as for GCCUUUGAGUUUUUCAUGUTT against Olfr314, inactive: -0.693.

For “GUGAGAAGUUGUGUAGAGCTT against 1110001J03Rik”, the z-score was inactive: 0.783.

For the sequence “GGCUCUGUGUUGGUAAUGATT against C030002N13Rik”, the z-score is inactive: 0.844. The figure for GGAGCAGAUGGUUUUCGAGTT against Copz2 is inactive: -0.486; for UUCCUUUUCUUCAUGCUUUTT against Olfr104 it is inactive: 0.416; for GGAUGUACCCUACUUGCUATT against BC025206 it is inactive: 0.519. The figure for GGGUUUUCUUUCUUUCUCUTT against Otub1 is inactive: 0.535; for GCUGUGGAGUCAAGAACAGTT against Zfp75 it is inactive: -0.936. As for GGCAAACCGACAGACUUCUTT against Riok1, the figure is inactive: -0.0278; as for GGUACAGACCUUUGAAAUATT against Apobec2, inactive: 0.347. As to GGAGCUUCUGACUAAUUAUTT against Srisnf2l, the z-score is inactive: -2.29. The figure for GGAUCCUAUAUGUUCUUUGTT against Cabp2 is inactive: -0.709; for “GGUUCGACUUUCUUUGCCATT against 2810409H07Rik” it is inactive: 0.574. For the sequence “GGGAUUUGUGAUUGAACUGTT against 2510002A14Rik”, the z-score is inactive: 0.376. As for GGAACACAAAUUGUGCUUATT against Zfp462, the figure is inactive: 0.708; as for “GGCUGACAAGAGAUUUAAATT against 4930430F08Rik”, inactive: -0.291; as for GGUUAUAGCAUCCUUAACUTT against Hspc171, inactive: -0.104. As for GGAUGGACUCUGUUCCUGUTT against Susd2, the figure is inactive: 0.297; as for “GGUACGAGCUGUUCGCCAUTT against D330013L20Rik”, inactive: 0.966; as for “GGACGUAGCUAUGGAGGAUTT against 1810009A15Rik”, inactive: -0.583. On to GCAGGAUCAGCUGUUCACATT against BC037651, for which the z-score was inactive: -1.4. The figure for CCUAAUUUCCUAGAUCUUCTT against Gm604 is inactive: 0.279; for GGAUCUGGGAAUCACCUCUTT against Trpv6 it is inactive: -0.178; for GCUAAAGAACGGUAUAUCGTT against Agxt2 it is inactive: 0.849.

With GGAAUCCAGAACUUGAUCGTT against Mfn1, the z-score was inactive: -0.149. The figure for GGAAAGCAUGUUGUACUUATT against BC006662 is inactive: 0.473; for “GCCGCCAGUACUAUUCUAUTT against 4930521E07Rik” it is inactive: -0.384. The figure for GCGGUGUAAACAGAUGGAGTT against Apg3l is inactive: 0.302. The figure for GCCUUGCCCUGACUAUGUUTT against Paqr3 is inactive: -0.724; for GGAGCCCUAUACAGGGUUUTT against Tusc5 it is inactive: -1.48. With GCUCGUGUACCUCUAUCUGTT against Ap2b1, the z-score is inactive: -0.341. The figure for GGACAAGGUCUUUAAUGUUTT against Fbxo3 is inactive: 0.0569; for GCCAGAACAGAAUCCAGGGTT against Sftpb it is inactive: -0.669. The figure for GGGUCUUUCCAUCUACCUCTT against Magel2 is inactive: -0.407; for GGCUACCCUUUUGAACCUCTT against Psmd3 it is inactive: -2.83. The figure for GGGUCUAGAGUGCAUCUUCTT against Kb40 is inactive: -0.264; for GGAAGUACUAUUACUGGACTT against Epha7 it is inactive: 0.162. Take CCGUAUUUGUGCUGUGUCUTT against Olfr275: the z-score is inactive: -0.00585. The figure for GGAAGUAUGUCCAGUCAUATT against Ifit3 is inactive: 0.104; for GGUCCACAAGUUCAUCGUCTT against Rpa1 it is inactive: -3.54; for GGUGCUACUGGAAGAAGGGTT against Ubl4 it is inactive: -0.151. Consider GGUGUUUUACAUAUCGUAATT against Usp49, for which the z-score was inactive: 0.192.

Take GGUAUCUUCUCUUGGAAAATT against Tex12: the z-score is inactive: -0.489. As for CGUGACCAACAUGAUACUUTT against Farsla, the z-score is inactive: -0.891. The figure for GGAAUUGGCAACAUAAAAATT against Vldlr is inactive: 1.02; for GGUGAAAGUACUGAGGAAGTT against Rnf12 it is inactive: -1.52; for GGCAAAUUUGGAAACGUGUTT against Aurkb it is inactive: -0.249. With GCACAAUGGUGUUAAGUCATT against Gm237, the z-score was inactive: -0.478. Turning to CCUUCUCCUCGUGCAAGUATT against Cort, the z-score was inactive: -2.1. As for GCCUUGUCUUCCUUCAGUGTT against Sprr2a, the figure is inactive: -1.08.

Regarding “CGAGGUGAAGGAUUACACCTT against 1810049K24Rik”, the z-score is inactive: 0.282. On to “GGUGGCACUCUUUCAGAUCTT against 6030446I19Rik”, for which the z-score was inactive: 0.179. Take “GGUAAUAAACGGUAAAUUGTT against B430306N03Rik”: the z-score is inactive: 1.28.

As to GGAUGAAGGAACUAAAUAUTT against Cog3, the z-score was inactive: -2.67.

Take CCAAUGUCAAGCAACUUCATT against Arnt2: the z-score is inactive: 0.00418. As for CCUUAUCUCUACCAUCGGUTT against Hyal2, the figure is inactive: -0.274.

In the case of “GCAACAUUAGGAUUUAUAGTT against 1110032E23Rik”, the z-score was inactive: -0.366. As for GCCAUAAUGCUAUUGUUCATT against Cacna1b, the figure is inactive: -0.324; as for CCAAUUACGGACUGUGUGUTT against Wfdc2, inactive: -0.229; as for “GGCUAGCUGCCCUUGUAUATT against 2810021O14Rik”, inactive: -0.00766. With GCGACAAAUGUAGCCCUUGTT against Mrpl36, the z-score was inactive: -2.53. CCAUUGUUCCAUUCUAAGUTT against Sema7a: the z-score was inactive: 1.34. As for CCCAAUCCUCCCAUGUUUCTT against Usp22, the figure is inactive: -0.137; as for “GGUUCUCUAACAGAACUUUTT against 4631426G04Rik”, inactive: 0.696.

For GGAUGUACUGAGUAGCUUUTT against Nical, the z-score was inactive: -1.08. The figure for CCACCAAAGGAGAAAGAGATT against Tcea3 is inactive: -2.78; for GUCAGAAAGAGAAGCUCGATT against Rps28 it is inactive: -3.23; for “GACUGGAUUUUAGUUCAUUTT against A130014H13Rik” it is inactive: -1.46. Turning to GGCCCUCUACAAUAUCGUCTT against D8Wsu151e, the z-score was inactive: 0.171. The figure for CCUAUAUUUUCAAAGAUGGTT against Gstm1 is inactive: 1.98; for CCCGGAAACAACACAUUGCTT against Tyrobp it is inactive: 0.506; for GGAAUUAUUCAUGACACAGTT against Hspa9a it is inactive: -2.55. In the case of GGAGGUGCAGAAAAUCAUCTT against BC037703, the z-score is inactive: -0.187. Regarding GGCUUUCCUUCGGAAGAAUTT against Abca14, the z-score was inactive: 0.571. As for GGGCCCAGAUUUCAAUGGGTT against Car14, the figure is inactive: -0.343; as for “GGAUUUAGAUCACUUGGAGTT against 2010300G19Rik”, inactive: 0.11; as for CGGAAAGCAUUAAAGCUAUTT against Bbs7, inactive: 0.179. In the case of GCAGAAAAACGUGAACAUUTT against LOC13909, the z-score is inactive: -2.47. For GGAGCUGUUUUUCCACUCCTT against Phlda2, the z-score is inactive: 2.16. Take GGUAAACUGCUCAAGAUGUTT against Ceacam12: the z-score was inactive: 1.4.

Values taken from PubChem BioAssay AID1347423 (Functional Genomics Laboratory (NCATS/FGL), 2020).
